Experimental data as given in US20250250358A1.
Results are given in words; binding and its absence hold for the method and conditions named. Some results given as binding are weak or reduced against the parent protein; the word gives no strength. Sequences can lack the tags named with a protein.

Protein sequences, listed by entry. Tags and fused reporters are not part of them. Residues count along the entry.
UniProt Q6UXX9, residues 22-243: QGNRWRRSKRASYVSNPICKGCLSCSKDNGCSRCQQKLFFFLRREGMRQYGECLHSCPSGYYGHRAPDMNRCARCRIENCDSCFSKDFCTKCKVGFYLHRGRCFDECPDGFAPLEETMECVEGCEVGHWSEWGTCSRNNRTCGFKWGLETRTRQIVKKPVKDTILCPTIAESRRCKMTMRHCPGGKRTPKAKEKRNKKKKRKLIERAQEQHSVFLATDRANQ

Tests used:
[1] = molecular target: T1, RNF43 (Extracellular domain)-Fc fusion (UniProt Q68DV7); test: BLI, RNF43-Fc tips loaded first with R0 or R3
T1 sequence (biotinylated (site not stated), looked up): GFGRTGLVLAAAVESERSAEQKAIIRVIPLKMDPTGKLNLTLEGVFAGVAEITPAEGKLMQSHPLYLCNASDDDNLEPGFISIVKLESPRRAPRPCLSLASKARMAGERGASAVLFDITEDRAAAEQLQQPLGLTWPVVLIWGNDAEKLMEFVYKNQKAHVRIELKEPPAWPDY

[2] = molecular target: T1, RNF43 (Extracellular domain)-Fc fusion; test: BLI, RNF43-Fc tips loaded first with 50 nM R0 Fab or 50 nM R3 Fab, then 100 nM RSPO2 (together with 50 nM of the Fab)

binding [1]: binds
binding [2]: binds
Substance: R-spondin 2 (from UniProt Q6UXX9 22-243) (ligand)
